Measurements from publication PMC12719775, “Alexidine is a TAZ-specific small-molecule inhibitor that suppresses breast cancer invasion and metastasis” (iScience, 2025).

Protein sequences, listed by entry. Tags and fused reporters are not part of them. Lines headed by an entry give the natural chain unless they say otherwise; changes in a name come on top. Residues count along the entry.
UniProt Q9GZV5, residues 13-119: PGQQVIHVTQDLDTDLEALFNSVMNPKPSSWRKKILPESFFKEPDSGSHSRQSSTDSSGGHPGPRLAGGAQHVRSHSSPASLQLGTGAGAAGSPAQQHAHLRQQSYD
UniProt P28347: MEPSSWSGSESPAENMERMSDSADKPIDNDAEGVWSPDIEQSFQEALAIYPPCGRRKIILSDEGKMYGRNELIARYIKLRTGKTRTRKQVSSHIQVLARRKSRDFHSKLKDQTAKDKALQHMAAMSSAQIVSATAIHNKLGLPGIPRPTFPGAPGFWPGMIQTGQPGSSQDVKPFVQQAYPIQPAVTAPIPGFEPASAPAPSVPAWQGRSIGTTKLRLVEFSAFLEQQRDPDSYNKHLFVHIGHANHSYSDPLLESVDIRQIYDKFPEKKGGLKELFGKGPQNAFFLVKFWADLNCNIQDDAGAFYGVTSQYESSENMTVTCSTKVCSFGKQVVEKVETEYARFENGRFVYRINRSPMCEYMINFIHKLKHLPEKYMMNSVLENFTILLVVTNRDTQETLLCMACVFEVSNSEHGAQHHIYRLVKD

Columns and labels:
[1] = target: FLAG-SmBiT-TAZ (interacting domain of TAZ, aa 13-119) (UniProt Q9GZV5); assay: co-IP; HEK293T cells co-transfected with both biosensor plasmids, 1% NP-40 lysates; FLAG-SmBiT-TAZ precipitated with anti-FLAG antibody, blot with anti-His; also after treating the cells with DMSO, alexidine, caspofungin or VT104 (10 uM, 48 h)
[2] = target: FLAG-SmBiT-TAZ (interacting domain of TAZ, aa 13-119) (UniProt Q9GZV5); assay: AlphaScreen or HTRF; TR-FRET in HEK293T lysates co-expressing the biosensor; Tb-conjugated anti-FLAG and D2-conjugated anti-His antibodies; increasing amounts of lysate; also with alexidine in a dose-response
[3] = target: FLAG-SmBiT-TAZ (interacting domain of TAZ, aa 13-119) (UniProt Q9GZV5); assay: split reporter; NanoBiT in HEK293T lysates (passive lysis buffer) co-expressing FLAG-SmBiT-TAZ and His-LgBiT-TEAD1; increasing amounts of lysate; Nano-Glo Live substrate

Measured: binding

His-LgBiT-TEAD1 (interacting domain of TEAD1, aa 194-411) (from UniProt P28347) (domain or fragment)
binds: all assays above

No constants are given. Whether binding was seen depends on the method and setting. Binding calls can cover weak binding; strength is not graded here. For part of these data: In cells and extracts the contact can be indirect.
